# Values from PubChem BioAssay AID504774 (Drosophila RNAi Screening Center, 2011).
# Test: 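Genes required for cells to withstand methyl methanesulphonate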 (primary screen)
# Cell system: Drosophila Kc167 cells
# Knock-down reagent: long dsRNA against Drosophila genes, about 0.25 µg dsRNA per well
# Timing: about 6 days: 3 days knock-down, then 3 days with or without MMS
# Treatment: methyl methanesulphonate 0.004% (w/v) for 3 days after knock-down
# Measured: 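Viability in wells given MMS, read as ATP luminescence, normalised by quantiles plate by plate and averaged across replicates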
# Reading the numbers: mean viability with MMS and viability with MMS: higher = more surviving cells after MMS
# In all, the deposit lists about 23,000 reagents; below is an unselected part of those with a known target gene and a result. 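Values are quantile-normalised luminescence on an arbitrary scale; higher means more cells surviving MMS.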 Names joined by + are all predicted targets of the reagent. Further read-outs or replicates are left out here. No sequences are given here.
gene knocked down,DRSC id,mean viability with MMS,"viability with MMS, replicate 1"
Pdcd4,DRSC19360,3.45e6,3.93e6
CG9184,DRSC08636,3.60e6,3.86e6
CG9184,DRSC22184,3.45e6,3.96e6
CG32806,DRSC21699,3.31e6,3.81e6
CG13284,DRSC02256,3.58e6,4.01e6
RpS17,DRSC11271,3.16e6,3.56e6
CG5913,DRSC15916,3.61e6,4.03e6
CG1722,DRSC20547,3.48e6,3.93e6
CG15423,DRSC00437,3.50e6,3.98e6
Sry-delta,DRSC16869,3.50e6,4.04e6
kis,DRSC00521,3.58e6,4.08e6
kis,DRSC00625,3.42e6,3.85e6
kis,DRSC00823,3.37e6,3.85e6
CG30002,DRSC05182,3.52e6,4.02e6
Tom40,DRSC18796,3.29e6,3.70e6
pths,DRSC03171,3.34e6,3.78e6
CG5334,DRSC19941,3.59e6,4.07e6
CG18528,DRSC15340,3.56e6,4.04e6
SdhB,DRSC05018,3.70e6,4.16e6
SdhB,DRSC21367,3.91e6,4.25e6
CG30467,DRSC07097,3.38e6,3.94e6
l(3)psg2,DRSC10484,3.46e6,3.84e6
CG4461,DRSC10423,3.54e6,4.08e6
SmydA-9,DRSC17814,3.56e6,3.99e6
Apl,DRSC10350,3.59e6,4.00e6
CG8031,DRSC16364,3.59e6,4.03e6
Klp54D,DRSC07450,3.48e6,3.89e6
CG42502 + CG10570,DRSC02071,3.63e6,4.17e6
CG11029,DRSC02119,3.48e6,4.03e6
CG5171,DRSC02823,3.58e6,4.02e6
CG6324,DRSC19985,3.60e6,4.08e6
CG10513,DRSC14248,3.44e6,3.88e6
BomS6,DRSC21676,3.70e6,4.12e6
rod,DRSC17047,3.43e6,3.84e6
CG31344,DRSC16069,3.58e6,4.02e6
Prosalpha4T2,DRSC04643,3.48e6,3.95e6
RabGGTb,DRSC00804,3.64e6,4.15e6
Dgp-1,DRSC07400,3.63e6,4.00e6
CG2898,DRSC18238,3.41e6,3.87e6
Pstk + Tim9b,DRSC19504,3.52e6,4.07e6
Pstk + Tim9b,DRSC20292,3.48e6,3.88e6
CG15445,DRSC20517,3.32e6,3.75e6
CG14947,DRSC02429,3.62e6,4.19e6
Mad1,DRSC07561,3.72e6,4.35e6
CG33258,DRSC09415,3.58e6,4.23e6
CG42374 + Mettl5,DRSC11085,3.62e6,4.11e6
Ppat-Dpck,DRSC09744,3.47e6,4.12e6
CG10183,DRSC14203,3.39e6,3.81e6
Slbp,DRSC16863,3.47e6,3.90e6
ergic53,DRSC11389,3.62e6,4.08e6
RpL7A,DRSC18709,3.06e6,3.49e6
shg,DRSC04714,3.68e6,4.10e6
CG9825,DRSC04569,3.62e6,3.96e6
beta-Man,DRSC12208,3.67e6,4.07e6
beta-Man,DRSC12209,3.62e6,4.04e6
PGAP5,DRSC03089,3.53e6,4.01e6
CG33181,DRSC17971,3.57e6,4.03e6
CG33181,DRSC22376,3.39e6,3.86e6
CG15728,DRSC19694,3.63e6,3.96e6
CG15728,DRSC22868,3.19e6,3.81e6
Fdx1,DRSC11167,3.67e6,4.30e6
CG3253,DRSC04350,3.42e6,3.75e6
CG14259,DRSC14754,3.56e6,4.06e6
Pig1,DRSC18698,3.43e6,3.94e6
CG30349,DRSC06421,3.46e6,3.99e6
CG30349,DRSC06839,3.40e6,3.92e6
Eig71Ec,DRSC11150,3.64e6,4.14e6
mon2,DRSC03112,3.76e6,4.00e6

Copied from the list.
CG30002 [DRSC05182], mean viability with MMS → 3.52e6
For “mean viability with MMS”, CG18528 [DRSC15340] is entered as 3.56e6
CG9184 [DRSC08636], viability with MMS, replicate 1 = 3.86e6
CG10183 [DRSC14203], viability with MMS, replicate 1: 3.81e6
